{"sequences": {"note": "The chains behind the UniProt entries cited, without tags or fusion partners. Where a name states a change or a piece, a line headed by the entry shows the natural chain unless it says otherwise.", "UniProt P26885": "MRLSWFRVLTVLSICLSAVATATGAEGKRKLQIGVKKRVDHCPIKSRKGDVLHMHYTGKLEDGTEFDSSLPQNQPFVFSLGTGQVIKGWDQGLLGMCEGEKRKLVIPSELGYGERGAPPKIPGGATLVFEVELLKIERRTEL", "UniProt Q9UKB1": "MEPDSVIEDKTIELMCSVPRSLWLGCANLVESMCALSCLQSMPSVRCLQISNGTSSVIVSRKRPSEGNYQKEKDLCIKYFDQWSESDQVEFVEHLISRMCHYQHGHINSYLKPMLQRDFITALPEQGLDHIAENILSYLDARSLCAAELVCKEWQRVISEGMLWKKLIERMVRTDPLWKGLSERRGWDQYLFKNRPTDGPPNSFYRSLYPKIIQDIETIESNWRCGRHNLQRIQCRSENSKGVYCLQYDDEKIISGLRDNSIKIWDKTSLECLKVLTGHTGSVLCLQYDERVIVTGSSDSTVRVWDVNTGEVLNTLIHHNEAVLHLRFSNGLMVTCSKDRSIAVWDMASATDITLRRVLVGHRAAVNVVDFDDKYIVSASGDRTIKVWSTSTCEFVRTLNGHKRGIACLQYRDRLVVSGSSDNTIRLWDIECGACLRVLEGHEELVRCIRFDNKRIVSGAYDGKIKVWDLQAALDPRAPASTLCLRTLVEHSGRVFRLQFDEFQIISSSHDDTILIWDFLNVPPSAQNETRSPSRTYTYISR", "UniProt Q9H9S5": "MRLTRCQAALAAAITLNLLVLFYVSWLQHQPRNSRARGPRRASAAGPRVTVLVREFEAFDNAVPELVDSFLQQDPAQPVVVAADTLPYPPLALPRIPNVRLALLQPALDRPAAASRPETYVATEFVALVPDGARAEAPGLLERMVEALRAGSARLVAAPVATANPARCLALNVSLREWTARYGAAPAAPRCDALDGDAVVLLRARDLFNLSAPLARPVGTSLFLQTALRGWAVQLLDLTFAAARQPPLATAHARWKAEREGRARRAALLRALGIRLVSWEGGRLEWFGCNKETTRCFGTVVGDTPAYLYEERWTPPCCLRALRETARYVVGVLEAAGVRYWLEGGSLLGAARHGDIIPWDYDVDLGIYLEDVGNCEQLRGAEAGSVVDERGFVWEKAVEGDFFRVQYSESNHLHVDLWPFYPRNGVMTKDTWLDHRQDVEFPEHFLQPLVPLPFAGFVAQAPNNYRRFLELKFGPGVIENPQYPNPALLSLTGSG", "UniProt Q96NB1": "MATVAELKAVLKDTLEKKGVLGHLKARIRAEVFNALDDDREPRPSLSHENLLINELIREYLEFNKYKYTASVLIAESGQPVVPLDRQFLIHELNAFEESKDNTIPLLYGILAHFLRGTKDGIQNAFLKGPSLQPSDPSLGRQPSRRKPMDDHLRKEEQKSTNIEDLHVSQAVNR", "UniProt Q96HJ9": "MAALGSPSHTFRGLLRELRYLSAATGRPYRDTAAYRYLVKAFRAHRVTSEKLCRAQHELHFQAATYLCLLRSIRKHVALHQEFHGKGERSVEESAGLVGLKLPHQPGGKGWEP", "UniProt P0C5J1": "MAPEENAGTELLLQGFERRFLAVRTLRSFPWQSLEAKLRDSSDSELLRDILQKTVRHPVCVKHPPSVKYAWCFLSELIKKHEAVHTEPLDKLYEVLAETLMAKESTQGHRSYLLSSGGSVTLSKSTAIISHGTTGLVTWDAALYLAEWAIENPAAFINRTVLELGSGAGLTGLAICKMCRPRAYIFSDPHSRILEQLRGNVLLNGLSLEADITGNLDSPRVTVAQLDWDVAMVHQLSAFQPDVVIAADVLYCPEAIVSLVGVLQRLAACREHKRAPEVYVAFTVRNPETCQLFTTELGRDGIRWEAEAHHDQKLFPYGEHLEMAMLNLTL", "UniProt Q9UHY8": "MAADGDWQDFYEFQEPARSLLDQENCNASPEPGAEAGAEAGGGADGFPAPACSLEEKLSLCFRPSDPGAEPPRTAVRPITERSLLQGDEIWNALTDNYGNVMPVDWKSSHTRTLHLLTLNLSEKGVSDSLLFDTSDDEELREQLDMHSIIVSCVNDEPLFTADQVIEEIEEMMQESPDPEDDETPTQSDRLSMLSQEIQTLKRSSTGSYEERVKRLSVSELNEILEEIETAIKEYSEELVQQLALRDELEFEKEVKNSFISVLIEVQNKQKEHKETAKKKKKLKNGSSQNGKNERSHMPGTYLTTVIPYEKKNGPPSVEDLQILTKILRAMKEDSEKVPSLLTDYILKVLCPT", "UniProt Q00597": "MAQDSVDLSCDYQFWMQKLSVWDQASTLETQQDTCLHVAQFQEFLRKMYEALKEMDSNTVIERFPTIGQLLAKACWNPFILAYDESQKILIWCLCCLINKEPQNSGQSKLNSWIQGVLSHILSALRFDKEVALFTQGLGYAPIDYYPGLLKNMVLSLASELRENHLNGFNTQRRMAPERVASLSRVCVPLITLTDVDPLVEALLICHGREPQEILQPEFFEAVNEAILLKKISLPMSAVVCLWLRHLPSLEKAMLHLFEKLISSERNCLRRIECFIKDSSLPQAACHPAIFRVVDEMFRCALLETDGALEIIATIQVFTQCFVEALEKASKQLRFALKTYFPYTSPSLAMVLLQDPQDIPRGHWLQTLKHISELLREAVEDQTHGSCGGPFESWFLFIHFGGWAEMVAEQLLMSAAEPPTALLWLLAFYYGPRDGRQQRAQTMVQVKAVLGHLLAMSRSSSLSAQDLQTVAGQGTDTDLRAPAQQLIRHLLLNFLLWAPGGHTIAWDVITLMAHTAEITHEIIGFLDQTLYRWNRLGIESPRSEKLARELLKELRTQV", "UniProt Q8N3X1": "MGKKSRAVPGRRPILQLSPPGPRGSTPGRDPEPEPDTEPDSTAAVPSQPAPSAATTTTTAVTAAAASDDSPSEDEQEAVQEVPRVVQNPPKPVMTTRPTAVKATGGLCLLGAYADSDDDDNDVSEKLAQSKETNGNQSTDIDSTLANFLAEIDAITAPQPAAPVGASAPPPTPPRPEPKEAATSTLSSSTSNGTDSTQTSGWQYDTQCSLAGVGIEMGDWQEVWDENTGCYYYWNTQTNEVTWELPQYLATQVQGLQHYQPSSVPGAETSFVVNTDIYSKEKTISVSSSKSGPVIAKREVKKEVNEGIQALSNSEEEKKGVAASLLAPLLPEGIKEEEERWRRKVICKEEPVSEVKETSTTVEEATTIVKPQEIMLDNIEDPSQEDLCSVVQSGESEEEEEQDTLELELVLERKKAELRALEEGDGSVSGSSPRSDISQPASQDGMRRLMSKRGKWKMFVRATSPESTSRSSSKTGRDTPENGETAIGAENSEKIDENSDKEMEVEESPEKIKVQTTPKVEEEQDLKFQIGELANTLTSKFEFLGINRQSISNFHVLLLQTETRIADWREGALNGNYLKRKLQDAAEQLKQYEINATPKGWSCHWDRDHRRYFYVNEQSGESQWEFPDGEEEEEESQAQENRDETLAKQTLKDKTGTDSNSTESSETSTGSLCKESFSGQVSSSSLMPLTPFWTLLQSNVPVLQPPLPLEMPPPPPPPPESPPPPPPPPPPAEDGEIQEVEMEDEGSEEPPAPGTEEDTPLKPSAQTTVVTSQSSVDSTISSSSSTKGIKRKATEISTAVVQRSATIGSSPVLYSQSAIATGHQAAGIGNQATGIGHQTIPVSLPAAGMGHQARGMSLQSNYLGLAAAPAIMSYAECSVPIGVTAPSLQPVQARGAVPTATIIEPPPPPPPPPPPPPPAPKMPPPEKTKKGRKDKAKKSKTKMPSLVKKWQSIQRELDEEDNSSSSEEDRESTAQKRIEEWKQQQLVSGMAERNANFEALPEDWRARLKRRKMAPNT", "UniProt Q96PY5, whole entry, looked up": "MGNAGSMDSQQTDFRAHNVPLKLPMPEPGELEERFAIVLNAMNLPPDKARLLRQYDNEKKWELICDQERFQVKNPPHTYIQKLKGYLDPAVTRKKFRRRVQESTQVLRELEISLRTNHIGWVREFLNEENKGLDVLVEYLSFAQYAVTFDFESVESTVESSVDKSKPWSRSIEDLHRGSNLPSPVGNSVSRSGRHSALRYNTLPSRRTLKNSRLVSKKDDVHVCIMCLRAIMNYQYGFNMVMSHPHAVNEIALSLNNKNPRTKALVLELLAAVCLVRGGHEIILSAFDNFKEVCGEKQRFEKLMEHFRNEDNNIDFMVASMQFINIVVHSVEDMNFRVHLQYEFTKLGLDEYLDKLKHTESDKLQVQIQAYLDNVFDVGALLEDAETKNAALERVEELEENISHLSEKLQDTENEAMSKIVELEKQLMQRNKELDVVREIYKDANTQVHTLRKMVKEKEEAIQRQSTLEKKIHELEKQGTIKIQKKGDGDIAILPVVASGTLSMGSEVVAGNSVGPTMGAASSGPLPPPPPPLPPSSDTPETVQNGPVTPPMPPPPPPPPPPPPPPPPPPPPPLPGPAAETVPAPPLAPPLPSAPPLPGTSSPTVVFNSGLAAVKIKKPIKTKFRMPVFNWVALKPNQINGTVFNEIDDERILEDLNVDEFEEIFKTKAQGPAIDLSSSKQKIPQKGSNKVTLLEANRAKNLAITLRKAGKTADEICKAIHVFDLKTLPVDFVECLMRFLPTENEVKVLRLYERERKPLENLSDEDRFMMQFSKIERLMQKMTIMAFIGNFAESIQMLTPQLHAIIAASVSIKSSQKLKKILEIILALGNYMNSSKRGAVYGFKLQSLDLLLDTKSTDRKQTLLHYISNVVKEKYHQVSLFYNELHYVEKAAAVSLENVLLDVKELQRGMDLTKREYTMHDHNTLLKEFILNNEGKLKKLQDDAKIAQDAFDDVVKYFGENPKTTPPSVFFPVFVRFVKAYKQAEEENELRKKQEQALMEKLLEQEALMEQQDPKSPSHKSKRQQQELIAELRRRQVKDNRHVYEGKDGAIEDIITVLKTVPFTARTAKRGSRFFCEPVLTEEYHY", "UniProt Q6PJ61": "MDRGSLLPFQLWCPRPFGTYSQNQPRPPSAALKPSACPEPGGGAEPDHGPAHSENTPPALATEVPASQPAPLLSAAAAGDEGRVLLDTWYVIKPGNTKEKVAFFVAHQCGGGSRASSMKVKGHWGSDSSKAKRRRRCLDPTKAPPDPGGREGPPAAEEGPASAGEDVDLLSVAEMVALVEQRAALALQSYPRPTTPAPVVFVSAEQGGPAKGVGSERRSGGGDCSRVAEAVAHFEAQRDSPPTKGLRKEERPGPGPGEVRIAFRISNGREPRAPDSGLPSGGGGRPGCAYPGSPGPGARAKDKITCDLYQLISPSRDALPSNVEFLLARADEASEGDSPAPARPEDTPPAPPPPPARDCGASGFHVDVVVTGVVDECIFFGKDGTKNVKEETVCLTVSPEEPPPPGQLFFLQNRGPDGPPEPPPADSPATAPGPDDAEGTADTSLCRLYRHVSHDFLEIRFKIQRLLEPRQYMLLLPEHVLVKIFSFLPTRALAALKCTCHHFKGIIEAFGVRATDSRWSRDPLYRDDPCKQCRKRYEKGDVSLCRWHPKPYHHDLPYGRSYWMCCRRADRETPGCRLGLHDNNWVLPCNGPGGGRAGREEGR", "UniProt Q8N6M3": "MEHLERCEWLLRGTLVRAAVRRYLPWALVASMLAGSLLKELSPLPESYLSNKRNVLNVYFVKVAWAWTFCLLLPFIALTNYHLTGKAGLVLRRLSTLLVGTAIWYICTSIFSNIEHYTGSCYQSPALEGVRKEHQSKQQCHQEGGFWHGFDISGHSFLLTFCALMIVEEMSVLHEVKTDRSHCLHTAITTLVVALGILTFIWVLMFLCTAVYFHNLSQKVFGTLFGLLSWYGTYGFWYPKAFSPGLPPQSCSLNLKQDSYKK", "UniProt Q6UN15": "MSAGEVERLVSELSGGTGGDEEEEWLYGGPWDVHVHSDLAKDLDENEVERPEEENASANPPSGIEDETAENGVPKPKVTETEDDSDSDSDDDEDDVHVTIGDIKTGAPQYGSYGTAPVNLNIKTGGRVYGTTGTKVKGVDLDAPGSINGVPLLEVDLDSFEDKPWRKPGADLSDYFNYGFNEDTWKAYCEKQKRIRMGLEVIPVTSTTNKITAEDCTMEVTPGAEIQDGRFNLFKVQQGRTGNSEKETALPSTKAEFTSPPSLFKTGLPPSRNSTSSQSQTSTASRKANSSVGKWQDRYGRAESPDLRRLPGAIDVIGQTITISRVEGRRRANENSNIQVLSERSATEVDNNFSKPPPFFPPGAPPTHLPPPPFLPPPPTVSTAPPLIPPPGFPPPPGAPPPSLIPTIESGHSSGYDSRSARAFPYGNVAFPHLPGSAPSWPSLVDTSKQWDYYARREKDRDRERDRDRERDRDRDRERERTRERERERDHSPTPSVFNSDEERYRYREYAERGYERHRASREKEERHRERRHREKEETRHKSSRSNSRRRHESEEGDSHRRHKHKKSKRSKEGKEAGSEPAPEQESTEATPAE", "UniProt Q9H4M3": "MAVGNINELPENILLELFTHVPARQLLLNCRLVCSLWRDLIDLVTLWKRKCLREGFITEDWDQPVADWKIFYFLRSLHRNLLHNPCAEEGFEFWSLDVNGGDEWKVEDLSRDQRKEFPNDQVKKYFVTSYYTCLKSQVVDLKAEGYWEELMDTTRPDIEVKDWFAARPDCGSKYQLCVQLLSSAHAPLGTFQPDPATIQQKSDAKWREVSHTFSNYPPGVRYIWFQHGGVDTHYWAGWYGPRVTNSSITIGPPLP"}, "source": "the supplement of paper PMC10849652", "note": "This is one part of the list.", "data": [{"compound": "CC1=CC=C(C=C1)SC2=C3C=C(SC3=CN=C2)C(=O)N", "assay": "log2 fold change, soluble protein after heating vs DMSO (PISA); higher = thermal stabilisation; K562 lysate, 10 uM; active = over 0.2 and 3.5 SD of the protein, either way, in both replicates (recomputed)", "method_in_brief": "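Following dounce homogenisation of K562 pellets in PBS pH 7.4 with 1 mM MgCl2, crude extract at 1 mg/mL protein was incubated for 30 min with 10 μM compound. Aliquots were then heated for 3 min over 48°C-58°C and pooled, NP-40 was added to 0.5% at 4°C, and soluble protein was recovered as the supernatant at 21,000xg for 90 min. Channel-sum-equalised TMTpro 16plex LC-MS/MS quantified this protein. Each value, from duplicates, is a log-two fold change in thermal stability relative to solvent controls.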", "values": [{"target": "FKBP2 (UniProt P26885)", "log2 fold change": "inactive: -0.028"}, {"target": "FHAD1 isoform 3 (UniProt B1AJZ9)", "log2 fold change": "inactive: -0.088"}, {"target": "FBXW11 (UniProt Q9UKB1)", "log2 fold change": "inactive: 0.071"}, {"target": "FKRP (UniProt Q9H9S5)", "log2 fold change": "inactive: 0.028"}, {"target": "FOPNL (UniProt Q96NB1)", "log2 fold change": "inactive: -0.104"}, {"target": "FMC1 (UniProt Q96HJ9)", "log2 fold change": "inactive: 0.027"}, {"target": "FMR1 isoform 9 (UniProt Q06787)", "log2 fold change": "inactive: 0.149"}, {"target": "FAM86B2 (UniProt P0C5J1)", "log2 fold change": "inactive: -0.118"}, {"target": "FBXW8 (UniProt Q8N3Y1)", "log2 fold change": "inactive: 0.042"}, {"target": "FGD6 (UniProt Q6ZV73)", "log2 fold change": "inactive: -0.165"}, {"target": "FEZ2 isoform 2 (UniProt Q9UHY8)", "log2 fold change": "inactive: -0.043"}, {"target": "FANCC (UniProt Q00597)", "log2 fold change": "inactive: 0.114"}, {"target": "FNBP4 isoform 2 (UniProt Q8N3X1)", "log2 fold change": "inactive: -0.009"}, {"target": "FMNL2 isoform 3 (UniProt Q96PY5)", "log2 fold change": "inactive: -0.003"}, {"target": "FIZ1 (UniProt Q96SL8)", "log2 fold change": "inactive: -0.028"}, {"target": "FAT2 (UniProt Q9NYQ8)", "log2 fold change": "inactive: -0.023"}, {"target": "FBXL12 (UniProt Q9NXK8)", "log2 fold change": "inactive: 0.001"}, {"target": "FARS2 (UniProt O95363)", "log2 fold change": "inactive: -0.038"}, {"target": "FBXO45 (UniProt P0C2W1)", "log2 fold change": "inactive: 0.081"}, {"target": "FMNL3 (UniProt Q8IVF7)", "log2 fold change": "inactive: -0.061"}, {"target": "FBXO46 (UniProt Q6PJ61)", "log2 fold change": "inactive: -0.043"}, {"target": "FITM2 (UniProt Q8N6M3)", "log2 fold change": "inactive: -0.071"}, {"target": "FEM1A (UniProt Q9BSK4)", "log2 fold change": "inactive: 0.019"}, {"target": "FIP1L1 isoform 3 (UniProt Q6UN15)", "log2 fold change": "inactive: -0.269"}, {"target": "FBXO44 isoform 2 (UniProt Q9H4M3)", "log2 fold change": "inactive: 0.04"}, {"target": "FLT4 (UniProt P35916)", "log2 fold change": "inactive: 0.005"}]}]}
